Assay results reported in publication PMC4823829.

Sequences of proteins named here, by UniProt entry; tags and fusion partners are left off.
UniProt Q39255: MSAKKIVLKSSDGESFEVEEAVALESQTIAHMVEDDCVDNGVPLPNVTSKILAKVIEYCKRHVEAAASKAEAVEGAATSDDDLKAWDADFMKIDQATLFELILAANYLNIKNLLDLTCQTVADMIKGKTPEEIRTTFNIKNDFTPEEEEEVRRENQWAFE
UniProt Q7XA73: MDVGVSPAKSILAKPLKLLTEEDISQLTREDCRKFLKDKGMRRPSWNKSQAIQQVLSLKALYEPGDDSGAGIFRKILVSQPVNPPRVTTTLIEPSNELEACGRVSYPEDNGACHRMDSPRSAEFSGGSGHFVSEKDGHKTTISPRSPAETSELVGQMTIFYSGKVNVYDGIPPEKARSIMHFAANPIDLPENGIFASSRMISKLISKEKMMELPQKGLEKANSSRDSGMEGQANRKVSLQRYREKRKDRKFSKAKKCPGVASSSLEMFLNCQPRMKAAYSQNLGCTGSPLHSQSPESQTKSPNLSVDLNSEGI
UniProt Q94AH6: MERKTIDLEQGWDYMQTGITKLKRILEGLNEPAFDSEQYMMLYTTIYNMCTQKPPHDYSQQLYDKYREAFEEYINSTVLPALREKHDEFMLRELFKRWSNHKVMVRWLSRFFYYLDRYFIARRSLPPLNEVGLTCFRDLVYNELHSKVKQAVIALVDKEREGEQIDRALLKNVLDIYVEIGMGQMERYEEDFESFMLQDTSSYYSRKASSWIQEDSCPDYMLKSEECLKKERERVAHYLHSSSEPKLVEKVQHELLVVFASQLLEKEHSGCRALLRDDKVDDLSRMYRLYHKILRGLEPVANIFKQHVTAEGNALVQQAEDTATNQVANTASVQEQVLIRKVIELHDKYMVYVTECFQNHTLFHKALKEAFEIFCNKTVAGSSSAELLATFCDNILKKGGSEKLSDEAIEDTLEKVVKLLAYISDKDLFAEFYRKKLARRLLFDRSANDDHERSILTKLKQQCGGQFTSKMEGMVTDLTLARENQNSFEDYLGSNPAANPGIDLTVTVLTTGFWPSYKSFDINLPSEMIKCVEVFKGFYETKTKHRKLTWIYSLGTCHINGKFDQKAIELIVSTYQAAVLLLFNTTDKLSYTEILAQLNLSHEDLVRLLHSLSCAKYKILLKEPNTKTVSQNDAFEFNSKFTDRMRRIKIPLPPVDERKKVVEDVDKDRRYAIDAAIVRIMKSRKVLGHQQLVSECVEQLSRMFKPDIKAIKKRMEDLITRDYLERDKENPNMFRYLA

Biological target: T1, GFP-SAP (STERILE APETALA) from 35S:GFP-SAP transgenic Arabidopsis plants (Arabidopsis thaliana) (UniProt Q9FKH1)
T1 sequence: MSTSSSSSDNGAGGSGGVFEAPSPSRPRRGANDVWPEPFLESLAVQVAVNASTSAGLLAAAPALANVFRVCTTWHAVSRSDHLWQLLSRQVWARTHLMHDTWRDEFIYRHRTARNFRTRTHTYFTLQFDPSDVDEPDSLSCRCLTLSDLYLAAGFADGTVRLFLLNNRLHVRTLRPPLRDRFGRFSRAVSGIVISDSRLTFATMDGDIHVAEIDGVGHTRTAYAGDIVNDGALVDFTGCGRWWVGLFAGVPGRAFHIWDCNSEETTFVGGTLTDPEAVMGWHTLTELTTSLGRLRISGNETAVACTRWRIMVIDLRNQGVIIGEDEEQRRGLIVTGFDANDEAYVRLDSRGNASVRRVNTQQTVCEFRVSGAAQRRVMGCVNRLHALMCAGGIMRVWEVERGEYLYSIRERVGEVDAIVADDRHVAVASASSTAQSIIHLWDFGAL
Test: affinity purification with mass spectrometry; total proteins of 35S:GFP-SAP transgenic Arabidopsis plants incubated with GFP-Trap-A agarose beads 1 h at 4 °C; 50 mM Tris-HCl pH 7.5, 150 mM NaCl, 20% glycerol, Triton X-100, 1 mM EDTA; LC-MS/MS

| binding | Substance |
| --- | --- |
| binds | ASK1, endogenous in Arabidopsis plants (from UniProt Q39255 1-160) |
| binds | PEAPOD1 (PPD1), endogenous in Arabidopsis plants (from UniProt Q7XA73 1-313) |
| binds | CUL1 (Cullin1), endogenous in Arabidopsis plants (from UniProt Q94AH6 1-738) |

These are yes or no findings as the source states them, for the method shown. Binding seen in cells or lysates may run through a third protein. These calls come from enrichment with a bait or labelling near it, and not all partners need be listed. Sequences can lack the tags named with a protein.
